In patent US7169591B1, “Preparation of enantio-specific epoxides” (priority 1999, dated 2007):

Experiment: Chiral GC of commercially available butadiene monoepoxide
Assay type: physicochemical

In the case of `C=CC1CO1` (centres unmarked) [BME, 1,3-butadiene monoepoxide], the “R-enantiomer content of commercial product” value was 24% and the “S-enantiomer content of commercial product” value (+/−2%) was 76%.
